# Measurements published in PubChem BioAssay AID1745846 (National Center for Advancing Translational Sciences (NCATS), 2022).
# About 30 (2%) of roughly 1,400 compounds were called active. About 15% were inconclusive and are not listed. The call rests on the fitted dose curve; in most records, active means well fitted inhibition curve with a large enough effect; inconclusive means small, poorly fitted or top-dose-only effect; inactive means flat fitted curve, though single readings scatter. Some of the results follow.
# Experiment: Firefly Luciferase Counterscreen for Inhibitors of ATXN expression
# Settings: luminescence; at 57.5 µM (top of the series)
# Source text: University of Utah School of Medicine, Salt Lake City, Utah
# Spinocerebellar ataxia type 2 (SCA2) is a multisystem neurodegenerative disease caused by a dominantly acting mutation leading to expansion of a polyQ domain in the ataxin-2 protein (ATXN2). SCA2 patients develop progressive ataxia and later lose function in other neuronal systems. Prominent parkinsonian signs develop in some patients. Like many neurodegenerative disorders, no symptomatic or disease-modifying treatments are known.
# The primary objective of the proposed research is to identify compounds inhibiting ATXN2 expression and to test them for efficacy in SCA2 mouse models. We have developed a cell-based assay paired with an in vivo mouse model using identical luciferase expression constructs. This approach takes advantage of an ATXN2-luciferase transgene, with the luciferase gene flanked by the upstream and downstream portions of the ATXN2 gene. Here we describe a 5-7 dose quantitative high thoroughput screen (qHTS) for compounds lowering ATXN2 expression. We screened the NIH Molecular Libraries Small Molecule Repository (MLSMR) and NCGC's mechanistically annotated (MIPE) and drug repurposing (NPC) collections of compounds for lowering expression of an ATXN2-luciferase reporter in HEK-293 cells. The assay is a multiplexed cell viability assay to ensure target reduction in the absence of cytotoxicity. Secondary qHTS assays included a CMV-luciferase reporter expressed in HEK-293 cells as well as a biochemical assay using recombinant luciferase to detect inhibitors of the reporter enzyme. Compounds that inhibit ATXN2 expression but is not cytotoxic were selected for confirmatory and secondary screens.
# PROTOCOL TABLE (as described by Inglese J, Shamu CE and Guy RK. 2007)
# SEQUENCE No. (e.g., 1, 2, 3, etc.); […] (e.g., Cells, Incubation, Reagent, etc.); VALUE; DESCRIPTION.
# 2; Compounds; 23 nL; Kalypsis pintool (Wako USA) equipped with a 1536-well pin head.
# 3; Enzyme; 1 uL; recombinant firefly luciferase (prepared in 50 mM Tris HCl pH7.5, 10 mM MgCl2, 0.05% BSA, 0.01% Tween20) at final concentration of 10 nM. Wells containing buffer only were used as control (set as 100% inhibition when normalizing data).
# 4; Incubation; 10 min; room temperature.
# 5; Detection; Luminescence; Viewlux plate reader (PerkinElmer).
# NOTES (numbers refer to Sequence numbers above)
# 1. Luciferase substrate is added to 1536 well, Greiner white assay plate. Evaporation was prevented by covering assay plates with metal lids containing holes to allow gas diffusion.
# 2. Compounds were added in a dose response manner with the final concentrations of 57, 11.4, 2.28, 0.46, 0.091, 0.018, 0.0037 uM. Vehicle-only plates, with DMSO being pin-transferred to columns 5-48, were inserted uniformly at the beginning and the end of each library to monitor and record any shifts in assay performance.
# 3. Recombinant firefly luciferase (10 nM final concentration) is added to the assay plate.
# 5. End-point luminescence is then measured on the Viewlux (PerkinElmer) imager equipped with a clear emission filter using a 2 sec exposure.
# Inglese J, Shamu CE and Guy RK, Reporting data from high throughput screening of small molecule libraries, Nature Chemical Biology, 2007, 3(8): 438-441. doi.org/10.1038/nchembio0807-438.
# On the % scale 0 is the no-effect control and ±100 the full control effect.
row,Compound,"activity change, negative = inhibition"
1,Cc1cccc(C)c1-n1nnnc1C(c1cc2ccccc2o1)N1CCC(n2c(=O)[nH]c3ccccc32)CC1 (configuration not stated),inactive: 1.58%
2,Cc1cccc(-n2c(/C=C/c3ccc([N+](=O)[O-])o3)nc3ccccc3c2=O)c1,inactive: 1.02%
3,c1ccc(CNc2c3c(nc4ccccc24)CCC3)cc1,inactive: -9.86%
4,CCCCn1c(=O)c(C(=O)Nc2ccccc2S(N)(=O)=O)c(O)c2ccccc21,inactive: -17.2%
5,Cc1c2ccncc2c(C)c2c1[nH]c1ccccc12,inactive: -0.544%
6,COc1cc2c(ccc3c4cc(OC)c(OC)cc4c[n+](C)c23)cc1O,inactive: -18.7%
7,CCC(C)(O)C(=O)OC1C(=O)OC2CC3C(C)=CC(=O)C(O)C3(C)C3C4(O)OCC23C1C(C)C4O (configuration not stated),inactive: 2.23%
8,CSCCC(c1nnnn1-c1c(C)cccc1C)N1CCC2(CC1)C(=O)NCN2c1ccccc1 (configuration not stated),inactive: 1.05%
9,CC1OC(OC2C(O)CC(OC3C(O)CC(OC4CCC5(C)C(CCC6C5CCC5(C)C(C7=CC(=O)OC7)C(O)CC65O)C4)OC3C)OC2C)CC(O)C1O (configuration not stated),inactive: 0.81%
10,CC1CC(C)CC(C)C(O)C(C#N)=CC=CCC(C2CCCC2C(=O)O)OC(=O)CC(O)C(C)C1 (configuration not stated),inactive: -8.03%
11,CCCCCCC(=O)N/N=C/c1c(O)n(CCCC)c(=S)[nH]c1=O,inactive: -5.16%
12,CCn1c(O)c(/C=N/NC(=O)c2ccccc2)c(=O)n(CC)c1=S,inactive: -6.72%
13,COc1ccc(N=Cc2c(O)n(-c3ccc(C)cc3)c(=O)[nH]c2=O)cc1,inactive: -2.76%
14,Cc1ccc(-c2nc(N(C)C3CCN(C)CC3)c3ccccc3n2)cc1,inactive: -14.4%
15,CNC(=O)Nc1ccc(C(=O)N/N=C\C23CC[C@@H](O)CC2(O)CC[C@@H]2[C@@H]3CCC3(C)C(C4=CC(=O)OC4)CCC23O)cc1 (some centres not stated),inactive: -19.8%
16,CC12CCC(O)CC1CCC1C2CCC2(C)C(C3=CC(=O)OC3)C(O)CC12O (configuration not stated),inactive: 3.7%
17,O=C(Nc1ccc(OC(=O)N2CCCCC2)cc1)N1CCOCC1,inactive: -2.42%
18,CC(C)CCn1c(N)c(C(=O)NCc2cccs2)c2nc3ccccc3nc21,inactive: -5.32%
19,COC(=O)c1nc(-c2ccc3c(n2)C(=O)C(N)=C(OC)C3=O)c(N)c(-c2ccc(OC)c(OC)c2O)c1C,inactive: -15.6%
20,CCCCCOc1ccc(C)cc1CN(CCCl)CCCl,inactive: -1.84%
21,NC(Cc1ccc(Cl)cc1)c1csc(Nc2ccccn2)n1 (configuration not stated),inactive: -0.184%
22,O=[N+]([O-])c1oc2ccc3ccccc3c2c1CCO,inactive: -5.73%
23,COC1C(O)C(C)OC(OC2CCC3(C)C(CCC4C3C(O)CC3(C)C(C5=CC(=O)OC5)CCC43O)C2)C1O (configuration not stated),inactive: 3.29%

# A second format for some results above:
row	Compound	activity change, negative = inhibition
7	CCC(C)(O)C(=O)OC1C(=O)OC2CC3C(C)=CC(=O)C(O)C3(C)C3C4(O)OCC23C1C(C)C4O (configuration not stated)	inactive: 2.23%
8	CSCCC(c1nnnn1-c1c(C)cccc1C)N1CCC2(CC1)C(=O)NCN2c1ccccc1 (configuration not stated)	inactive: 1.05%
9	CC1OC(OC2C(O)CC(OC3C(O)CC(OC4CCC5(C)C(CCC6C5CCC5(C)C(C7=CC(=O)OC7)C(O)CC65O)C4)OC3C)OC2C)CC(O)C1O (configuration not stated)	inactive: 0.81%
10	CC1CC(C)CC(C)C(O)C(C#N)=CC=CCC(C2CCCC2C(=O)O)OC(=O)CC(O)C(C)C1 (configuration not stated)	inactive: -8.03%

# (further entries)

row,Compound,"activity change, negative = inhibition"
1,c1ccc2sc(N3CCNCC3)nc2c1,inactive: -4.71%
2,NC(Cc1ccc(F)cc1)c1csc(Nc2ccccn2)n1 (configuration not stated),inactive: -8.32%
3,C=Cc1cc(OC)c2c(c1)c(=O)oc1c2cc(OC)c2c(O)ccc(C3OC(C)C(O)C(C)(O)C3O)c21 (configuration not stated),inactive: -4.99%
4,C#CCCC[C@@H]1OC(=O)CNC(=O)C([C@@H](C)CC)NC(=O)[C@@H]2CCCN2C(=O)C([C@@H](C)CC)OC(=O)[C@H](Cc2ccccc2)N(C)C(=O)[C@H](C(C)C)NC(=O)C1(C)C (some centres not stated),inactive: 1.32%
5,CCCCC(=O)N/N=C/c1c(O)n(Cc2ccc(F)cc2)c(=O)[nH]c1=O,inactive: -5.24%
6,N[C@@H](Cc1ccc(N(CCCl)CCCl)cc1)C(=O)O,inactive: -0.23%
7,Nc1c(C(=O)NCCc2ccccc2)c2nc3ccccc3nc2n1CCN1CCOCC1,inactive: -9.07%
8,COc1ccc(O)c2c(=O)c3c(OC)cc4c(c3oc12)C1C=COC1O4 (configuration not stated),inactive: 0.457%
9,CC(C)CCNC(=O)c1c(N)n(Cc2ccc3c(c2)OCO3)c2nc3ccccc3nc12,inactive: -0.956%
10,CCOc1cc(CNCCc2c[nH]c3ccccc23)cc(Cl)c1OC,inactive: 0.646%
11,CCCCCCC(=O)N/N=C/c1c(O)n(CCc2ccccc2)c(=O)[nH]c1=O,inactive: -1.76%
12,COc1ccc(CC2C(=O)NC(C)C(=O)N(C)C3C(=O)N(C)C(Cc4ccc(O)c(c4)Oc4ccc(cc4)C3O)C(=O)NC(C)C(=O)NC(C)C(=O)N2C)cc1 (configuration not stated),inactive: 1.63%
13,O=c1[nH]c2ccccc2n1C1CCN(C(CCc2ccccc2)c2nnnn2C2CCCC2)CC1 (configuration not stated),inactive: 2.35%
14,C[C@H]1[C@@H](OS(=O)(=O)O)C[C@@H]2C[C@H]([C@@H](O)c3cc(=O)[nH]c(=O)[nH]3)NC3=NC[C@H]1N32,inactive: 0.756%
15,O=[N+]([O-])c1ccc(C(c2ccc([N+](=O)[O-])cc2)c2ccc([N+](=O)[O-])cc2)cc1,inactive: 2.49%
16,CC(=NCCc1c[nH]c2ccccc12)c1c(O)n(Cc2ccccc2)c(=O)[nH]c1=O,inactive: 2.57%
17,CC12CCC3C(CCC4(O)CC(O)CCC34C=NO)C1(O)CCC2C1=COC(=O)C1 (configuration not stated),inactive: 6.38%
18,CC12CCC(O)CC1CCC1C2CCC2(C)C(C3=CC(=O)OC3)CCC12O (configuration not stated),inactive: 3.41%
19,CNCC(O)c1cc(OCc2ccccc2)c(OCc2ccccc2)cc1F (configuration not stated),inactive: 3.51%
20,CCCCCn1c(=O)c(C(=O)NCc2ccncc2)c(O)c2ccccc21,inactive: -2.82%
21,COc1cc2c(cc1OC)[C@@H]1C(=O)c3ccc4c(c3O[C@@H]1CO2)C[C@H](C(C)C)O4,inactive: -4.43%
22,C[C@@H]1C[C@@H]([C@H](O)CC2CC(=O)NC(=O)C2)C(=O)[C@@H](C)C1,inactive: 3.21%
23,CCCCCn1c(NC(=O)c2ccco2)c(C(=O)OCC)c2nc3ccccc3nc21,inactive: -9.71%

row,Compound,"activity change, negative = inhibition"
1,C[C@]12CCC3C(CCC4=CC(O)CC[C@@]43/C=N/O)C1(O)CCC2C1=CC(=O)OC1 (some centres not stated),inactive: 2.35%
2,C[C@]12CC[C@H](O)C[C@H]1CC[C@@H]1[C@@H]2CC[C@]2(C)[C@@H](C3=CC(=O)OC3)CC[C@]12O,inactive: 4.18%
3,COc1cc2c(cc1OC)C1C(=O)c3ccc4c(c3OC1CO2)CC(C(C)C)O4 (configuration not stated),inactive: -1.73%
4,COc1cc2nc(CN3CC=C(c4ccccc4)CC3)[nH]c(=O)c2cc1OC,inactive: -1.91%
5,O=C1NC(=O)C2(CCCc3ccc(N(CCCl)CCCl)cc32)N1 (configuration not stated),inactive: -9.28%
6,COc1cc(C(=O)NN=Cc2ccc(N(CCCl)CCCl)cc2)cc(OC)c1OC,inactive: -11.6%
7,CCCCN=C[C@]12CCC(O)CC1(O)CCC1[C@@H]2CC[C@]2(C)[C@H](C3C=CC(=O)O3)CCC12O (some centres not stated),inactive: 1.73%
8,CCC(C)OC(=O)c1c(N)n(Cc2cccs2)c2nc3ccccc3nc12 (configuration not stated),inactive: -1.95%
9,CCOC(=O)c1c(N)n(CCN2CCCCC2)c2nc3ccccc3nc12,inactive: 0.489%
10,C[C@@H]1O[C@@H](O[C@@H]2C=C3CC[C@@H]4C(CC[C@]5(C)[C@@H](c6ccc(=O)oc6)CC[C@]45O)[C@@]3(C)CC2)[C@H](O)[C@H](O)[C@H]1O (some centres not stated),inactive: -0.422%
11,COc1ccc(CCNC(=O)c2c(N)n(CCN3CCOCC3)c3nc4ccccc4nc23)cc1,inactive: -11.1%
12,CC(=O)OC(C)(C)/C=C/C(=O)C(C)(O)C1[C@H](O)C[C@@]2(C)C3CC=C4C(CC[C@@H](O)C4(C)C)[C@]3(CO)C(=O)C[C@]12C (some centres not stated),inactive: 4.43%
13,COc1ccc2c(c1)C(c1ccc(N(CCCl)CCCl)cc1)=NCC2,inactive: 3.03%
14,COc1ccc(CC2NCC(O)C2OC(C)=O)cc1 (configuration not stated),inactive: 1.25%
15,Cc1cc(N(CCCl)CCCl)ccc1C=NNC(=O)c1cccnc1,inactive: -14.8%
16,CC(C)(C)n1nnnc1C(CCc1ccccc1)N1CCC(n2c(=O)[nH]c3ccccc32)CC1 (configuration not stated),inactive: 1.95%
17,O=C1NC(=O)N(CCc2ccc(F)cc2)C(=O)/C1=C/C=C/c1ccccc1,inactive: 0.883%
18,CC(=O)OC1CC2(O)C3CCC4CC(O)CCC4(C)C3CCC2(C)C1C1=CC(=O)OC1 (configuration not stated),inactive: 4.3%
19,CCC(C)N1C(=O)/C(=C\c2cnc(N(C)C)nc2)C(=O)NC1=S (configuration not stated),inactive: -17.6%
20,COC12C(COC(N)=O)C3=C(C(=O)C(C)=C(N)C3=O)N1CC1C2N1C (configuration not stated),inactive: -5.01%
21,CCCCC(=O)N/N=C/c1c(O)n(CCC2=CCCCC2)c(=O)[nH]c1=O,inactive: -3.19%
